No constants are given. Whether binding was seen depends on the method and setting. In cells and extracts the contact can be indirect. Some binding calls cover weakened binding; strength is not graded here.
Target: T1, Wnt11 (neonatal mouse heart) (mouse (endogenous in neonatal mouse heart)) (UniProt P48615)
T1 sequence: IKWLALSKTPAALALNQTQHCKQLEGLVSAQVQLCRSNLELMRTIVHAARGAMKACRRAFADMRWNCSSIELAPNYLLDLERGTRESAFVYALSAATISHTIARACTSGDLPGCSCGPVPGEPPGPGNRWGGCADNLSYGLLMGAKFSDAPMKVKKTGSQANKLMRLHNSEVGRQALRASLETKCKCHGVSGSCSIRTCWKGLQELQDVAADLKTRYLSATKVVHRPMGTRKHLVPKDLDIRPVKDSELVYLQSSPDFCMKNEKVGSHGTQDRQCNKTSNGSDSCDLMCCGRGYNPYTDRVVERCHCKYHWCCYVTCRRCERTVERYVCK
Assay: co-IP

- binding: binds
B1: Frizzled 4 (neonatal mouse heart) (receptor, UniProt Q61088 37-537)
chain: FGDEEERRCDPIRIAMCQNLGYNVTKMPNLVGHELQTDAELQLTTFTPLIQYGCSSQLQFFLCSVYVPMCTEKINIPIGPCGGMCLSVKRRCEPVLREFGFAWPDTLNCSKFPPQNDHNHMCMEGPGDEEVPLPHKTPIQPGEECHSVGSNSDQYIWVKRSLNCVLKCGYDAGLYSRSAKEFTDIWMAVWASLCFISTTFTVLTFLIDSSRFSYPERPIIFLSMCYNIYSIAYIVRLTVGRERISCDFEEAAEPVLIQEGLKNTGCAIIFLLMYFFGMASSIWWVILTLTWFLAAGLKWGHEAIEMHSSYFHIAAWAIPAVKTIVILIMRLVDADELTGLCYVGNQNLDALTGFVVAPLFTYLVIGTLFIAAGLVALFKIRSNLQKDGTKTDKLERLMVKIGVFSVLYTVPATCVIACYFYEISNWALFRYSADDSNMAVEMLKIFMSLLVGITSGMWIWSAKTLHTWQKCSNRLVNSGKVKREKRGNGWVKPGKGNETVV
